# Assay results published in patent US20230126310A1 (priority 2020, published 2023).
# Tested on: SARS-CoV-2
# Assay: microbe, parasite or virus in culture
# Conditions: Severe acute respiratory syndrome coronavirus 2, Caco-2, 48 h, read-out: % Inh. (% Inhibition of SARS-CoV-2)
smiles,measurement,value
Cc1cc(/C=C/c2ccc3cc(N(C)C)ccc3[n+]2C)c(C)n1-c1ccccc1 [pyrvinium],inhibition at 10 µM,74.7%
